# Assay results reported in the supplement of paper PMC8728848.
# This is one part of the list.
# B1: PEB4 (Campylobacter jejuni), A1VYV6 (protein)
# chain: MKKFSLVAAALIAGVALNVNAATVATVNGKSISDAEVSEFFAPMLRGQDFKTLPDNQKKALIQQYIMQDLILQDAKKQNLEKDPLYTKELDRAKDAILVNVYQEKILNTIKIDAAKVKAFYDQNKDKYVKPARVQAKHILVATEKEAKDIINELKGLKGKELDAKFSELAKEKSIDPGSKNQGGELGWFDQSTMVKPFTDAAFALKNGTITTTPVKTNFGYHVILKENSQAKGQIKFDEVKQGIENGLKFEEFKKVINQKGQDLLNSAKVEYK
# How the values were obtained:
# Assay in all cases: glycan array binding signal (z-score within array); higher = stronger binding
# Settings in all cases: glycan notation: IUPAC condensed, linker removed
# [1] = target: Neu5Ac(a2-3)Gal(b1-4)[Fuc(a1-3)]GlcNAc(b1-3)Gal
# How it was run: (§1)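 Negative Z-scores can be read as non-binding. The Z-score is calculated within each array and then averaged across arrays of one protein sequence at different concentrations or buffers and across linkers. Arrays, 3228 in all, were curated from the Consortium for Functional Glycomics database and kept only where the protein sequence was available.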
# [2] = target: Neu5Ac(a2-3)Gal(b1-4)[Fuc(a1-3)]GlcNAc(b1-3)Gal(b1-4)GlcNAc
# How it was run: as §1
# [3] = target: Neu5Ac(a2-3)Gal(b1-4)[Fuc(a1-3)]GlcNAc(b1-3)Gal(b1-4)[Fuc(a1-3)]GlcNAc(b1-3)Gal(b1-4)[Fuc(a1-3)]GlcNAc
# How it was run: as §1
# [4] = target: Neu5Ac(a2-3)Gal(b1-4)[Fuc(a1-3)]GlcNAc(b1-3)GalNAc
# How it was run: as §1
# [5] = target: Neu5Ac(a2-3)Gal(b1-4)[Fuc(a1-3)]GlcNAc(b1-6)[Gal(b1-3)]GalNAc
# How it was run: as §1
# [6] = target: Neu5Ac(a2-3)Gal(b1-4)[Fuc(a1-3)]GlcNAc(b1-6)[Neu5Ac(a2-3)Gal(b1-3)]GalNAc
# How it was run: as §1
# [7] = target: Neu5Ac(a2-3)Gal(b1-4)[Fuc(a1-3)]GlcNAc6S
# How it was run: as §1
# [8] = target: Neu5Ac(a2-3)Gal6S(b1-4)GlcNAc
# How it was run: as §1
# [9] = target: Neu5Ac(a2-3)Gal6S(b1-4)[Fuc(a1-3)]GlcNAc
# How it was run: as §1
# Neu5Ac(a2-3)GalNAc = target: Neu5Ac(a2-3)GalNAc
# How it was run: as §1
# [10] = target: Neu5Ac(a2-3)GalNAc(b1-4)GlcNAc
# How it was run: as §1
# [11] = target: Neu5Ac(a2-3)[GalNAc(b1-4)]Gal(b1-4)Glc
# How it was run: as §1
# [12] = target: Neu5Ac(a2-3)[GalNAc(b1-4)]Gal(b1-4)GlcNAc
# How it was run: as §1
# [13] = target: Neu5Ac(a2-3)[GalNAc(b1-4)]Gal(b1-4)GlcNAc(b1-3)GalNAc
# How it was run: as §1
# [14] = target: Neu5Ac(a2-3)[Neu5Ac(a2-6)]GalNAc
# How it was run: as §1
# Neu5Ac(a2-6)Gal = target: Neu5Ac(a2-6)Gal
# How it was run: as §1
# Neu5Ac(a2-6)Gal(b1-4)Glc = target: Neu5Ac(a2-6)Gal(b1-4)Glc
# How it was run: as §1
# [15] = target: Neu5Ac(a2-6)Gal(b1-4)GlcNAc
# How it was run: as §1
# [16] = target: Neu5Ac(a2-6)Gal(b1-4)GlcNAc(b1-2)Man(a1-3)Man(b1-4)GlcNAc(b1-4)GlcNAc
# How it was run: as §1
# [17] = target: Neu5Ac(a2-6)Gal(b1-4)GlcNAc(b1-2)Man(a1-3)[Gal(b1-4)GlcNAc(b1-2)Man(a1-6)]Man(b1-4)GlcNAc(b1-4)GlcNAc
# How it was run: as §1
# [18] = target: Neu5Ac(a2-6)Gal(b1-4)GlcNAc(b1-2)Man(a1-3)[GlcNAc(b1-2)Man(a1-6)]Man(b1-4)GlcNAc(b1-4)GlcNAc
# How it was run: as §1
# [19] = target: Neu5Ac(a2-6)Gal(b1-4)GlcNAc(b1-2)Man(a1-3)[GlcNAc(b1-2)Man(b1-4)GlcNAc(b1-2)Man(a1-6)]Man(b1-4)GlcNAc(b1-4)GlcNAc
# How it was run: as §1
# [20] = target: Neu5Ac(a2-6)Gal(b1-4)GlcNAc(b1-2)Man(a1-3)[Man(a1-6)]Man(b1-4)GlcNAc(b1-4)GlcNAc
# How it was run: as §1
# [21] = target: Neu5Ac(a2-6)Gal(b1-4)GlcNAc(b1-2)Man(a1-3)[Neu5Ac(a2-6)Gal(b1-4)GlcNAc(b1-2)Man(a1-6)]Man(b1-4)GlcNAc(b1-4)GlcNAc
# How it was run: as §1
# [22] = target: Neu5Ac(a2-6)Gal(b1-4)GlcNAc(b1-2)Man(a1-6)Man(b1-4)GlcNAc(b1-4)GlcNAc
# How it was run: as §1
# [23] = target: Neu5Ac(a2-6)Gal(b1-4)GlcNAc(b1-2)Man(a1-6)[Gal(b1-4)GlcNAc(b1-2)Man(a1-3)]Man(b1-4)GlcNAc(b1-4)GlcNAc
# How it was run: as §1
# [24] = target: Neu5Ac(a2-6)Gal(b1-4)GlcNAc(b1-2)Man(a1-6)[GlcNAc(b1-2)Man(a1-3)]Man(b1-4)GlcNAc(b1-4)GlcNAc
# How it was run: as §1
# [25] = target: Neu5Ac(a2-6)Gal(b1-4)GlcNAc(b1-2)Man(a1-6)[Man(a1-3)]Man(b1-4)GlcNAc(b1-4)GlcNAc
# How it was run: as §1
# [26] = target: Neu5Ac(a2-6)Gal(b1-4)GlcNAc(b1-3)Gal(b1-3)GlcNAc
# How it was run: as §1
# [27] = target: Neu5Ac(a2-6)Gal(b1-4)GlcNAc(b1-3)Gal(b1-4)GlcNAc
# How it was run: as §1
# [28] = target: Neu5Ac(a2-6)Gal(b1-4)GlcNAc(b1-3)Gal(b1-4)GlcNAc(b1-3)Gal(b1-4)GlcNAc
# How it was run: as §1
# [29] = target: Neu5Ac(a2-6)Gal(b1-4)GlcNAc(b1-3)Gal(b1-4)[Fuc(a1-3)]GlcNAc(b1-3)Gal(b1-4)[Fuc(a1-3)]GlcNAc
# How it was run: as §1
# [30] = target: Neu5Ac(a2-6)Gal(b1-4)GlcNAc(b1-3)GalNAc
# How it was run: as §1
# [31] = target: Neu5Ac(a2-6)Gal(b1-4)GlcNAc6S
# How it was run: as §1
# Neu5Ac(a2-6)GalNAc = target: Neu5Ac(a2-6)GalNAc
# How it was run: as §1
# [32] = target: Neu5Ac(a2-6)GalNAc(b1-4)GlcNAc
# How it was run: as §1
# [33] = target: Neu5Ac(a2-6)GlcNAc(b1-4)GlcNAc
# How it was run: as §1
# [34] = target: Neu5Ac(a2-6)GlcNAc(b1-4)GlcNAc(b1-4)GlcNAc
# How it was run: as §1
binder,measurement,setting,value
B1,glycan array binding signal (z-score),[1],-0.338
same,glycan array binding signal (z-score),[2],-0.192
same,glycan array binding signal (z-score),[3],2.42
same,glycan array binding signal (z-score),[4],5.24
same,glycan array binding signal (z-score),[5],1.91
same,glycan array binding signal (z-score),[6],0.46
same,glycan array binding signal (z-score),[7],-0.884
same,glycan array binding signal (z-score),[8],1.6
same,glycan array binding signal (z-score),[9],2.8
same,glycan array binding signal (z-score),Neu5Ac(a2-3)GalNAc,-0.192
same,glycan array binding signal (z-score),[10],-1.65
same,glycan array binding signal (z-score),[11],-1.19
same,glycan array binding signal (z-score),[12],0.794
same,glycan array binding signal (z-score),[13],-0.544
same,glycan array binding signal (z-score),[14],-0.037
same,glycan array binding signal (z-score),Neu5Ac(a2-6)Gal,0.075
same,glycan array binding signal (z-score),Neu5Ac(a2-6)Gal(b1-4)Glc,-0.082
same,glycan array binding signal (z-score),[15],-0.245
same,glycan array binding signal (z-score),[16],0.508
same,glycan array binding signal (z-score),[17],0.001
same,glycan array binding signal (z-score),[18],0.605
same,glycan array binding signal (z-score),[19],-0.096
same,glycan array binding signal (z-score),[20],-0.137
same,glycan array binding signal (z-score),[21],0.063
same,glycan array binding signal (z-score),[22],-0.33
same,glycan array binding signal (z-score),[23],-0.19
same,glycan array binding signal (z-score),[24],-1.16
same,glycan array binding signal (z-score),[25],0.354
same,glycan array binding signal (z-score),[26],-0.889
same,glycan array binding signal (z-score),[27],-0.672
same,glycan array binding signal (z-score),[28],0.084
same,glycan array binding signal (z-score),[29],-0.544
same,glycan array binding signal (z-score),[30],0.725
same,glycan array binding signal (z-score),[31],0.427
same,glycan array binding signal (z-score),Neu5Ac(a2-6)GalNAc,-1.56
same,glycan array binding signal (z-score),[32],-0.144
same,glycan array binding signal (z-score),[33],-0.701
same,glycan array binding signal (z-score),[34],0.131

# Given with bars between the fields: part of the list above.
binder | measurement | setting | value
B1 | glycan array binding signal (z-score) | [11] | -1.19
same | glycan array binding signal (z-score) | Neu5Ac(a2-6)Gal | 0.075
